At least one structure is not confirmed: it was looked up by name or label, or the drawing left a doubt.
System: lipid ROS
Assay: C11-BODIPY imaging of lipid ROS before cell death
Format: cell-based
Conditions: erastin 5 μM
Description: NIS Elements software (Nikon, Melville, N.Y.) was used.

CCOc1ccccc1-n1c(C(C)N2CCN(C(=O)COc3ccc(Cl)cc3)CC2)nc2ccccc2c1=O (stereo not shown) [erastin, Erastin]
C11-BODIPY staining before cell death: Increased staining prior to cell death

Source: patent publication US11246946B2, “Methods of treatment using ultrasmall nanoparticles to induce cell death of nutrient-deprived cancer cells via ferroptosis” (priority 2015, dated 2022)
